Reference: PMC8549421
No constants are given. Whether binding was seen depends on the method and setting. Binding seen in cells or lysates may run through a third protein. Some results given as binding are weak or reduced against the parent protein; the word gives no strength. Values belong to the binder of their own block, whether it stands above or below them.

Chains of the proteins cited; added tags and fusions are not shown.
UniProt P20649: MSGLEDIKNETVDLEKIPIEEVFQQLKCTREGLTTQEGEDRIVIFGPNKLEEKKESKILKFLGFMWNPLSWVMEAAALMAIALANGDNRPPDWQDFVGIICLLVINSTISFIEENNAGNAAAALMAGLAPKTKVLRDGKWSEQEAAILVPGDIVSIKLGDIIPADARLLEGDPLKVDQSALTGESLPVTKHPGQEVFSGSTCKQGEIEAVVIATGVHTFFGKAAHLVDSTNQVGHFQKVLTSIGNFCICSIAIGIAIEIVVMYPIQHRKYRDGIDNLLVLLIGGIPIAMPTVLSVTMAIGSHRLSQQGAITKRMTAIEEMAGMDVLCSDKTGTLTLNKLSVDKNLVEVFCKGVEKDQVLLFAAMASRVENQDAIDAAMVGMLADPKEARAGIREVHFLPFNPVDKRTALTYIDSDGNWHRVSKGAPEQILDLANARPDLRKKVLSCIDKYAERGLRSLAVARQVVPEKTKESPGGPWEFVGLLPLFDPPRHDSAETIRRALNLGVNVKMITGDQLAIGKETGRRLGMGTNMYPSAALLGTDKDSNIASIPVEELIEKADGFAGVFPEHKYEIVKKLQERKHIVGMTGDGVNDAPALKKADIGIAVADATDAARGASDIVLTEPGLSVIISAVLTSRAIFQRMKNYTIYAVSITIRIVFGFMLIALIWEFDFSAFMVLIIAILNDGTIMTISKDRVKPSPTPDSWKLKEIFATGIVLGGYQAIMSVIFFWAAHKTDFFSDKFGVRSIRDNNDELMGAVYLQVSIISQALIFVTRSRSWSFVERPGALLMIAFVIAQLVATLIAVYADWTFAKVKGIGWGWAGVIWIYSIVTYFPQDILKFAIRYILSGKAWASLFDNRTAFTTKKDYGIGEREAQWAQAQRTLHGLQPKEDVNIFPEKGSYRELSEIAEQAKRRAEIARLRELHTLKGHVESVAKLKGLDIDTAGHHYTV

What was measured:
[1] = molecular target: GFP–AHA1 (Arabidopsis thaliana) (UniProt P20649); assay: co-IP; extracts of 4-week-old 35S::GFP-AHA1 plants (10 mM HEPES pH 7.5, 100 mM NaCl, 1 mM EDTA, 10% glycerol, 0.1% Triton X-100); GFP-Trap; blot with anti-TMK1 or anti-TMK4 antibodies
[2] = molecular target: AHA1–GFP (Arabidopsis thaliana) (UniProt P20649); assay: FRET or BRET; sensitized-emission FRET on the plasma membrane of single protoplasts held in a microfluidics chip; 100 nM NAA or mock buffer applied at 25 s; 5 s per frame

binding [1]: binds
B1: TMK1 (protein, UniProt P43298 24-942)
chain: DSDGDLSAMLSLKKSLNPPSSFGWSDPDPCKWTHIVCTGTKRVTRIQIGHSGLQGTLSPDLRNLSELERLELQWNNISGPVPSLSGLASLQVLMLSNNNFDSIPSDVFQGLTSLQSVEIDNNPFKSWEIPESLRNASALQNFSANSANVSGSLPGFLGPDEFPGLSILHLAFNNLEGELPMSLAGSQVQSLWLNGQKLTGDITVLQNMTGLKEVWLHSNKFSGPLPDFSGLKELESLSLRDNSFTGPVPASLLSLESLKVVNLTNNHLQGPVPVFKSSVSVDLDKDSNSFCLSSPGECDPRVKSLLLIASSFDYPPRLAESWKGNDPCTNWIGIACSNGNITVISLEKMELTGTISPEFGAIKSLQRIILGINNLTGMIPQELTTLPNLKTLDVSSNKLFGKVPGFRSNVVVNTNGNPDIGKDKSSLSSPGSSSPSGGSGSGINGDKDRRGMKSSTFIGIIVGSVLGGLLSIFLIGLLVFCWYKKRQKRFSGSESSNAVVVHPRHSGSDNESVKITVAGSSVSVGGISDTYTLPGTSEVGDNIQMVEAGNMLISIQVLRSVTNNFSSDNILGSGGFGVVYKGELHDGTKIAVKRMENGVIAGKGFAEFKSEIAVLTKVRHRHLVTLLGYCLDGNEKLLVYEYMPQGTLSRHLFEWSEEGLKPLLWKQRLTLALDVARGVEYLHGLAHQSFIHRDLKPSNILLGDDMRAKVADFGLVRLAPEGKGSIETRIAGTFGYLAPEYAVTGRVTTKVDVYSFGVILMELITGRKSLDESQPEESIHLVSWFKRMYINKEASFKKAIDTTIDLDEETLASVHTVAELAGHCCAREPYQRPDMGHAVNILSSLVELWKPSDQNPEDIYGIDLDMSLPQALKKWQAYEGRSDLESSTSSLLPSLDNTQMSIPTRPYGFAESFTSVDGR

B2: TMK1–mCherry (protein, UniProt P43298 24-942)
chain: B1 chain
binding [2]: binds
